In the supplement of paper PMC10849652:
The list shows a part of the results.

Protein sequences, listed by entry. Tags and fused reporters are not part of them. Lines headed by an entry give the natural chain unless they say otherwise; changes in a name come on top.
UniProt O15431: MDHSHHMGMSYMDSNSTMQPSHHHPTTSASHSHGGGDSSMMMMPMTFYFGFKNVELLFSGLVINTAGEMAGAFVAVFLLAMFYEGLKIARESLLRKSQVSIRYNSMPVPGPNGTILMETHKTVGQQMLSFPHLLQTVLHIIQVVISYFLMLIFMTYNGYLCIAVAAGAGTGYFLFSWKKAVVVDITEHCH
UniProt P48067: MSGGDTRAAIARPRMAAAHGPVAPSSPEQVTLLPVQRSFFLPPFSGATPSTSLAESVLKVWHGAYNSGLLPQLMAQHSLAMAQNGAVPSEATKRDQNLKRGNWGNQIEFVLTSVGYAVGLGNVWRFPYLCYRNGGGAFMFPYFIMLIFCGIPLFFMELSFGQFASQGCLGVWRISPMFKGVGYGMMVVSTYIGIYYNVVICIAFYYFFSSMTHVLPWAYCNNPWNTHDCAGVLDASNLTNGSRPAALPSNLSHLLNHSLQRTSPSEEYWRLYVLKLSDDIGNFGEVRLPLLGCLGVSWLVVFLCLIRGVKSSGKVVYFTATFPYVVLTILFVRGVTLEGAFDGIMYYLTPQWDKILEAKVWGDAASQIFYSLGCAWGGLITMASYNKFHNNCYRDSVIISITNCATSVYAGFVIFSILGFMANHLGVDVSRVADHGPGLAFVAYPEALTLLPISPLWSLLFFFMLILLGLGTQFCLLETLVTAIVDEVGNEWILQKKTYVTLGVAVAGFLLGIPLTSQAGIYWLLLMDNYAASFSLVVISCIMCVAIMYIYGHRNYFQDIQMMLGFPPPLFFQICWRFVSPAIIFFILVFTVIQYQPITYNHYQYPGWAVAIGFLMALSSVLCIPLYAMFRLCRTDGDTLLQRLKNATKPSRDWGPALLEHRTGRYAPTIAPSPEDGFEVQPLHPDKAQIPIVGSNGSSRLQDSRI
UniProt Q8N697: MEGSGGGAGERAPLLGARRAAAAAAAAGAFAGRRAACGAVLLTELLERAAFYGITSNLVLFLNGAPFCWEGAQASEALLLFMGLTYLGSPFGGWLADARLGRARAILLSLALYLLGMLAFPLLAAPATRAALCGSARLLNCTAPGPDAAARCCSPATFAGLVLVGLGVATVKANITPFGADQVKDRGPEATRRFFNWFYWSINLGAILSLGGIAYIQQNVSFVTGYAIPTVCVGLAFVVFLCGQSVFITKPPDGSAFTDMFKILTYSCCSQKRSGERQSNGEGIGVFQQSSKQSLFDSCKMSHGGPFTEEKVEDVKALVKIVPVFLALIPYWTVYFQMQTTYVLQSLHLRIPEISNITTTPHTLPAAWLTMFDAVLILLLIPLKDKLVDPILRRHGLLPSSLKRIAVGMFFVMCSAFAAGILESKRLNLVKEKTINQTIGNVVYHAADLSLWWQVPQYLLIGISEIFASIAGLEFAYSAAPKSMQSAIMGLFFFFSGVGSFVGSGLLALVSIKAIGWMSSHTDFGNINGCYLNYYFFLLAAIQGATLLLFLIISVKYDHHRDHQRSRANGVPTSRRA
UniProt P02730: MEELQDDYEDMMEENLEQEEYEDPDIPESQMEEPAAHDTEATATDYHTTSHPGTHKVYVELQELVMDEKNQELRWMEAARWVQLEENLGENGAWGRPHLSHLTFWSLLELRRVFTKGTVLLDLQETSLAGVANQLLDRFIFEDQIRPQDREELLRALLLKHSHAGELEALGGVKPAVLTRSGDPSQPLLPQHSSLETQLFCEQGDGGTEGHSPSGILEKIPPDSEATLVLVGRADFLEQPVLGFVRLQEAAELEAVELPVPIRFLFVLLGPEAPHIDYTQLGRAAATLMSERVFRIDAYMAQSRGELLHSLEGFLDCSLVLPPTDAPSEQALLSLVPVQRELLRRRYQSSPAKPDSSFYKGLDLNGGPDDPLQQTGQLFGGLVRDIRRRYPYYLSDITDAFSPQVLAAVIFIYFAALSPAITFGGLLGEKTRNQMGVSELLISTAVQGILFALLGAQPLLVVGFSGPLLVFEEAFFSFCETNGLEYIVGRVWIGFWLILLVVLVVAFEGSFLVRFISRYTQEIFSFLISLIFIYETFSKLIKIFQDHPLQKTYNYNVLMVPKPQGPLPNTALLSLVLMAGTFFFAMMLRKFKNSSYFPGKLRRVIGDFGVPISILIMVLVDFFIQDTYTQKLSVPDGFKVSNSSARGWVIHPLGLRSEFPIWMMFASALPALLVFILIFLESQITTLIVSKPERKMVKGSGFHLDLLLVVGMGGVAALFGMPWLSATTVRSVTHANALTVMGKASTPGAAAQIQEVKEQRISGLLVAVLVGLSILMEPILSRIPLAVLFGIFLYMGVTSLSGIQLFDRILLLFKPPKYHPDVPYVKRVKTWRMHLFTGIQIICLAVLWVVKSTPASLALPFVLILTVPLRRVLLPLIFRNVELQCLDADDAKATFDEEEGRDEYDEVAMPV
UniProt Q6NXT4: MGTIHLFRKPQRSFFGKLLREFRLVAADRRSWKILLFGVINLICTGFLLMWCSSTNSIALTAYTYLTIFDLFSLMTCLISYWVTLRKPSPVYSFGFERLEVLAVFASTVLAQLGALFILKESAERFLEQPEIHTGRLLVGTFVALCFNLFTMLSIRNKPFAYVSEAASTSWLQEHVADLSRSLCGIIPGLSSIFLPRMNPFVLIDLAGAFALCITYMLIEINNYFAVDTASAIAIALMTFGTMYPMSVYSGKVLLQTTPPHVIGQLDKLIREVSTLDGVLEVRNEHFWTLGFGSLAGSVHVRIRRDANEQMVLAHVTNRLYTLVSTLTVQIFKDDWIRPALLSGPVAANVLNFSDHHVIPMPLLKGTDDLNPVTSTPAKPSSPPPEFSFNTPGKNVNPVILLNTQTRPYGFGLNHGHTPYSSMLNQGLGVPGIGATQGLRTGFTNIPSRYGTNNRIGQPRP
UniProt Q8N1S5: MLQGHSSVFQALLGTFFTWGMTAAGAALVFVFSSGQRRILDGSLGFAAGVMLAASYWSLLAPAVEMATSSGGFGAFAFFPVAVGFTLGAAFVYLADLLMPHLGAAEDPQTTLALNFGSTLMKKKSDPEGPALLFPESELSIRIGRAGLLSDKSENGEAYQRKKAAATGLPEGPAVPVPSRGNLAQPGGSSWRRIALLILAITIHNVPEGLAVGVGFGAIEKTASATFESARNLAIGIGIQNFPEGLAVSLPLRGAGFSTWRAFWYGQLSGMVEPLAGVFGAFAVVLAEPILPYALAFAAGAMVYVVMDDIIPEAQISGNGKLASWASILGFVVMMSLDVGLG
UniProt Q8NBW4: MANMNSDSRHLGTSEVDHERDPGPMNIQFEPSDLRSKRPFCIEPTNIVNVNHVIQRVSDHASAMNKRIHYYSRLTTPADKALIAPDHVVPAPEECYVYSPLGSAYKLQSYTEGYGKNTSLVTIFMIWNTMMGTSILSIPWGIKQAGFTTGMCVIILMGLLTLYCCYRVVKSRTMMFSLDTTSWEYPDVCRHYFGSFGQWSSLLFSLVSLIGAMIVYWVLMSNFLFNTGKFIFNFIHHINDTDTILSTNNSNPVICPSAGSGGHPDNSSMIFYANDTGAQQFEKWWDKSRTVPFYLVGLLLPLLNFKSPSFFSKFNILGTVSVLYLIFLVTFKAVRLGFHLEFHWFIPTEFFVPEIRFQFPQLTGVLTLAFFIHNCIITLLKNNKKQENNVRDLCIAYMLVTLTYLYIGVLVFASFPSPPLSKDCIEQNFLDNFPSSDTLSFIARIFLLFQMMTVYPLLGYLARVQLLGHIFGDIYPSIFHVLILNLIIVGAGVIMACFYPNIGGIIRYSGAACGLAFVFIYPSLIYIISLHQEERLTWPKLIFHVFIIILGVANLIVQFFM
UniProt Q92504: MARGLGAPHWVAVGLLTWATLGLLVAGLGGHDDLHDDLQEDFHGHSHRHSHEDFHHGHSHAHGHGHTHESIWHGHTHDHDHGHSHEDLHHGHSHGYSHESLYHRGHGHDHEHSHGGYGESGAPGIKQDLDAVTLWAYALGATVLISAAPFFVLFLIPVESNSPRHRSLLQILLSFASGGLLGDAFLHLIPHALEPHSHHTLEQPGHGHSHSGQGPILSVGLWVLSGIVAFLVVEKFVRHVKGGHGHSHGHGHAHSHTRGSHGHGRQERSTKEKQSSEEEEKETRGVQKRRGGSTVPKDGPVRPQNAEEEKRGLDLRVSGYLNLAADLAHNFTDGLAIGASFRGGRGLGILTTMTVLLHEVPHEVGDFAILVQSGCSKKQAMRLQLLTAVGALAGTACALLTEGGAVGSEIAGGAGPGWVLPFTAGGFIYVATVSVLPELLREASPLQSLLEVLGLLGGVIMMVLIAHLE
UniProt Q6XR72: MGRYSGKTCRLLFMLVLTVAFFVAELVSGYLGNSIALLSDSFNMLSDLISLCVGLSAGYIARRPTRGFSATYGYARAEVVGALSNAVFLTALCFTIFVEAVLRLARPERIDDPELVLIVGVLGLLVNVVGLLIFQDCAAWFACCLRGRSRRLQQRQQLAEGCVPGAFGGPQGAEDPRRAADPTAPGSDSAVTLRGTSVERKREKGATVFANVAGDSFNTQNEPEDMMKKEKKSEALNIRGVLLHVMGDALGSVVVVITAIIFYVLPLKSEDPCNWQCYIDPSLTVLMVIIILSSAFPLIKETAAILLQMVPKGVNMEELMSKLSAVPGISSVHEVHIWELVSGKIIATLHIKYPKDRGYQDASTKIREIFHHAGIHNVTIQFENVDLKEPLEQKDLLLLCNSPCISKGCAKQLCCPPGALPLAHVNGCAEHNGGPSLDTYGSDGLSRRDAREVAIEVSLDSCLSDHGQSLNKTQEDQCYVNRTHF
UniProt Q8TAD4: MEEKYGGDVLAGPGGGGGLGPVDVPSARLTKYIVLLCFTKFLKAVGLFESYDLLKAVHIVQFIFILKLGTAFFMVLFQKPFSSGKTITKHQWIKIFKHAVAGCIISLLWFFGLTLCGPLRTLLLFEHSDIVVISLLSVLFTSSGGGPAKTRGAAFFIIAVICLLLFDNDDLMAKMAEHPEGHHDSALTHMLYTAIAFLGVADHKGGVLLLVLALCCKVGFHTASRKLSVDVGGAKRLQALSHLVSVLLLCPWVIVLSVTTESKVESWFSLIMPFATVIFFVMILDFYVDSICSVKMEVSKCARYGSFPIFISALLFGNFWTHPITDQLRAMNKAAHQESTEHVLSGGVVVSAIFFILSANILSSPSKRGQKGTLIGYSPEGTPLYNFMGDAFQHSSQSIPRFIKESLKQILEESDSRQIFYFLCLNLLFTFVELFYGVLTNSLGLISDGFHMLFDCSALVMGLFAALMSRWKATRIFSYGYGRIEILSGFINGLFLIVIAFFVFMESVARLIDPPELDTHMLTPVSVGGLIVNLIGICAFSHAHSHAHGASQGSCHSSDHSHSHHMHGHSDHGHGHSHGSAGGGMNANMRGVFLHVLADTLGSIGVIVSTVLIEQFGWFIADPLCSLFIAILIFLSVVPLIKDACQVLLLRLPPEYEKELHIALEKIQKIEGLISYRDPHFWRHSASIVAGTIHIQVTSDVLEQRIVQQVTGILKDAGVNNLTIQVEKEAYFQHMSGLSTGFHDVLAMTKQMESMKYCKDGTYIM
UniProt Q6KCM7: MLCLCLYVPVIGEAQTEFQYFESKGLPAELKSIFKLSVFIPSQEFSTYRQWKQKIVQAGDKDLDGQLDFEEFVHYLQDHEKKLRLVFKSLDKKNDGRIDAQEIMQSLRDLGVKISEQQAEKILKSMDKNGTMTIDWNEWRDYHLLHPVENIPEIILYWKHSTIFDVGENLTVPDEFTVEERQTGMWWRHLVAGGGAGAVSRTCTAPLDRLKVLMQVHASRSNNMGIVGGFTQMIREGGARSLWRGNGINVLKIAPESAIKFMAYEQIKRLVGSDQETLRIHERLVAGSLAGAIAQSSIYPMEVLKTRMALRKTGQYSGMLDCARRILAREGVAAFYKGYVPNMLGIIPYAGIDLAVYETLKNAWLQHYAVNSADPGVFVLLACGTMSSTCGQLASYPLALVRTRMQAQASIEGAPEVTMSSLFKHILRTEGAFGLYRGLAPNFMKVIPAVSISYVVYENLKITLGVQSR
UniProt P48029: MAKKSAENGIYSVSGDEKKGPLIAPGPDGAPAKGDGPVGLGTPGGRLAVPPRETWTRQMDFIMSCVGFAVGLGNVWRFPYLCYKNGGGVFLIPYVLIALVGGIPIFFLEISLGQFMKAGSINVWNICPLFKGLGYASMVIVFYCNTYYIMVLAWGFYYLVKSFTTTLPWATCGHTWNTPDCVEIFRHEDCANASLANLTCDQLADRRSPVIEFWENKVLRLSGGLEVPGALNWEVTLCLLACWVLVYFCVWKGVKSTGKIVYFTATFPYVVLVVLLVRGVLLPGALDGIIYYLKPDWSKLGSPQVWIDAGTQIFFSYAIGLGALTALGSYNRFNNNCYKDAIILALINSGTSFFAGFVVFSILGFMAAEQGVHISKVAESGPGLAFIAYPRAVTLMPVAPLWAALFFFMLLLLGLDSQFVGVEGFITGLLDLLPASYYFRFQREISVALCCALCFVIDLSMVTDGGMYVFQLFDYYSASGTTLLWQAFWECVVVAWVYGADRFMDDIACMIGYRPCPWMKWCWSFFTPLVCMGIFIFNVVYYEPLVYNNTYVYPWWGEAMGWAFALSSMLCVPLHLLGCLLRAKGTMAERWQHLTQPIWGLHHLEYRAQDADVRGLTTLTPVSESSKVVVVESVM

Legend:
Experiment in all cases: log2 fold change, soluble protein after heating vs DMSO (PISA); higher = thermal stabilisation; K562 cells, 10 uM, 30 min; active = over 0.2 and 3.5 SD of the protein, either way, in both replicates (recomputed)
[1] = compound: C1=CC=C(C=C1)[C@H](COC2=CC3=C(C=C2)NC(=O)N3)NC(=O)C4=CC=CN(C4=O)CC5=CC(=C(C=C5)F)F
Method in brief: (§1)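 Soluble protein was quantified by TMTpro 16plex LC-MS/MS after channel sums were equalised. It was obtained as the supernatant after 21,000xg for 90 min from pooled aliquots of K562 cells (2×10^6 cells/mL, 10 μM compound, 30 min) heated for 3 min across 48°C-58°C and extracted in PBS with 0.5% NP-40 at 4°C. Thermal stability values are relative to control samples and come from duplicates. They are given as log2 fold changes.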

[2] = compound: CC1=C(SC2=C1C(=N[C@H](C3=NN=C(N32)C)CC(=O)N)C4=CC=C(C=C4)Cl)C
Method in brief: as §1

[3] = compound: CC1=C2C(=CC=C1)N=C(N(C2=O)C3=CC=CC=C3C)CN4C=NC5=C(N=CN=C54)N
Method in brief: as §1

[4] = compound: Cc1sc2c(c1C)C(c1ccc(Cl)cc1)=N[C@@H](CC(=O)OC(C)(C)C)c1nnc(C)n1-2
Method in brief: as §1

[5] = compound: c1ccc([C@@H]2C[C@H]2NC2CCNCC2)cc1
Method in brief: as §1

Measured: log2 fold change

SLC25A22 (UniProt Q9H936)
inactive: [1] 0.024 | [2] -0.006 | [3] 0.05 | [4] 0.045 | [5] 0.022

SLC31A1 (UniProt O15431)
inactive: [1] 0.019 | [2] 0.088 | [3] 0.056 | [4] -0.059 | [5] 0.004

SLC1A3 (UniProt P43003)
inactive: [1] -0.031 | [2] 0.003 | [3] -0.016 | [4] 0.17 | [5] 0.039

SLC35C1 (UniProt Q96A29)
inactive: [1] -0.085 | [2] 0.053 | [3] -0.041 | [4] -0.037 | [5] 0.067

SLC6A9 (UniProt P48067)
inactive: [1] 0.045 | [2] 0.021 | [3] -0.032 | [4] -0.022 | [5] 0.099

SLC15A4 (UniProt Q8N697)
inactive: [1] -0.013 | [2] 0.027 | [3] 0.01 | [4] -0.087 | [5] -0.066

SLC4A1 (UniProt P02730)
inactive: [1] 0.067 | [2] -0.014 | [3] 0.184 | [4] 0.028 | [5] 0.093

SLC30A6 isoform 2 (UniProt Q6NXT4)
inactive: [1] -0.038 | [2] -0.054 | [3] 0.121 | [4] 0.023 | [5] -0.021

SLC39A11 (UniProt Q8N1S5)
inactive: [1] 0.053 | [2] 0.072 | [3] 0.078 | [4] -0.323 | [5] -0.003

Pulled one by one from the list above, 2 records:
SLC39A11 (UniProt Q8N1S5)
inactive: [1] 0.053 | [2] 0.072 | [3] 0.078 | [4] -0.323 | [5] -0.003

SLC6A9 (UniProt P48067)
inactive: [1] 0.045 | [2] 0.021 | [3] -0.032 | [4] -0.022 | [5] 0.099

Following part.

SLC38A9 (UniProt Q8NBW4)
inactive: [1] 0.053 | [2] -0.019 | [3] 0.065 | [4] -0.014 | [5] 0.042

SLC1A5 (UniProt Q15758)
inactive: [1] -0.003 | [2] 0.035 | [3] -0.026 | [4] 0.013 | [5] 0.022

SLC18B1 (UniProt Q6NT16)
inactive: [1] 0.015 | [2] 0.028 | [3] 0.061 | [4] 0.009 | [5] -0.039

SLC26A6 (UniProt Q9BXS9)
inactive: [1] -0.023 | [2] 0.047 | [3] -0.057 | [4] 0.051 | [5] 0.033

SLC39A7 (UniProt Q92504)
inactive: [1] 0.028 | [2] -0.064 | [3] 0.047 | [4] 0.031 | [5] 0.003

SLC29A3 (UniProt Q9BZD2)
inactive: [1] 0.036 | [2] 0.033 | [3] 0.044 | [4] -0.352 | [5] 0.139

SLC35A1 (UniProt P78382)
inactive: [1] -0.046 | [2] -0.108 | [3] 0.05 | [4] -0.07 | [5] 0.013

SLC45A4 isoform 3 (UniProt Q5BKX6)
inactive: [1] 0.012 | [2] -0.044 | [3] 0.196 | [4] 0.091 | [5] 0.183

SLC30A10 (UniProt Q6XR72)
inactive: [1] 0.066 | [2] -0.005 | [3] 0.113 | [4] -0.003 | [5] 0.059

SLC30A5 (UniProt Q8TAD4)
inactive: [1] -0.076 | [2] 0.129 | [3] 0.096 | [4] -0.055 | [5] -0.02

SLC25A51 (UniProt Q9H1U9)
inactive: [1] 0.036 | [2] 0.014 | [3] -0.002 | [4] -0.014 | [5] -0.045

SLC25A25 isoform 3 (UniProt Q6KCM7)
inactive: [1] 0.068 | [2] -0.019 | [3] 0.029 | [4] -0.023 | [5] 0.021

SLC30A7 (UniProt Q8NEW0)
inactive: [1] -0.033 | [2] 0.052 | [3] -0.049 | [4] 0.039 | [5] -0.011

SLC12A6 isoform 2 (UniProt Q9UHW9)
inactive: [1] 0.081 | [2] 0.014 | [3] -0.02 | [4] 0.038 | [5] 0.023

SLC6A8 (UniProt P48029)
inactive: [1] -0.055 | [2] 0.039 | [3] 0.025 | [4] -0.274 | [5] 0.102
